According to article doi:10.1101/2020.02.25.964072:
These are yes or no findings as the source states them, for the method shown. In cells and extracts the contact can be indirect. These calls come from enrichment with a bait or labelling near it, and not all partners need be listed. Each block holds one molecule with its values, some of them ahead of it.

Amino acid sequences for entries named in this document (tags omitted).
UniProt Q9H4L4: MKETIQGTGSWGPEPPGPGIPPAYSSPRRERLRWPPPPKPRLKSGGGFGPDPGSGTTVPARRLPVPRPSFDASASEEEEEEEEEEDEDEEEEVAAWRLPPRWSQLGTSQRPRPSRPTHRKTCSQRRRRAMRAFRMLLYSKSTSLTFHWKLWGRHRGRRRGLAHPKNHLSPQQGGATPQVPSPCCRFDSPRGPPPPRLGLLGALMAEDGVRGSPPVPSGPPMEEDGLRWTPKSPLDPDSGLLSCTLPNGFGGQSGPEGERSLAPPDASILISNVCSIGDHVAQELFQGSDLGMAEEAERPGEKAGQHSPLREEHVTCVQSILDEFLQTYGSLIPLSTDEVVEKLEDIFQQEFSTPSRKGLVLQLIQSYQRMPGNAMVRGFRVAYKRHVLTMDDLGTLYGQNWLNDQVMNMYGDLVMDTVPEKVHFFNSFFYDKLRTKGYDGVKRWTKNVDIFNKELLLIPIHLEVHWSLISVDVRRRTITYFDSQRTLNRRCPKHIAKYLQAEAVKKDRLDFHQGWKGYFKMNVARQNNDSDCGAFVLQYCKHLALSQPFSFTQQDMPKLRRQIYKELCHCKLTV
UniProt Q8IY21: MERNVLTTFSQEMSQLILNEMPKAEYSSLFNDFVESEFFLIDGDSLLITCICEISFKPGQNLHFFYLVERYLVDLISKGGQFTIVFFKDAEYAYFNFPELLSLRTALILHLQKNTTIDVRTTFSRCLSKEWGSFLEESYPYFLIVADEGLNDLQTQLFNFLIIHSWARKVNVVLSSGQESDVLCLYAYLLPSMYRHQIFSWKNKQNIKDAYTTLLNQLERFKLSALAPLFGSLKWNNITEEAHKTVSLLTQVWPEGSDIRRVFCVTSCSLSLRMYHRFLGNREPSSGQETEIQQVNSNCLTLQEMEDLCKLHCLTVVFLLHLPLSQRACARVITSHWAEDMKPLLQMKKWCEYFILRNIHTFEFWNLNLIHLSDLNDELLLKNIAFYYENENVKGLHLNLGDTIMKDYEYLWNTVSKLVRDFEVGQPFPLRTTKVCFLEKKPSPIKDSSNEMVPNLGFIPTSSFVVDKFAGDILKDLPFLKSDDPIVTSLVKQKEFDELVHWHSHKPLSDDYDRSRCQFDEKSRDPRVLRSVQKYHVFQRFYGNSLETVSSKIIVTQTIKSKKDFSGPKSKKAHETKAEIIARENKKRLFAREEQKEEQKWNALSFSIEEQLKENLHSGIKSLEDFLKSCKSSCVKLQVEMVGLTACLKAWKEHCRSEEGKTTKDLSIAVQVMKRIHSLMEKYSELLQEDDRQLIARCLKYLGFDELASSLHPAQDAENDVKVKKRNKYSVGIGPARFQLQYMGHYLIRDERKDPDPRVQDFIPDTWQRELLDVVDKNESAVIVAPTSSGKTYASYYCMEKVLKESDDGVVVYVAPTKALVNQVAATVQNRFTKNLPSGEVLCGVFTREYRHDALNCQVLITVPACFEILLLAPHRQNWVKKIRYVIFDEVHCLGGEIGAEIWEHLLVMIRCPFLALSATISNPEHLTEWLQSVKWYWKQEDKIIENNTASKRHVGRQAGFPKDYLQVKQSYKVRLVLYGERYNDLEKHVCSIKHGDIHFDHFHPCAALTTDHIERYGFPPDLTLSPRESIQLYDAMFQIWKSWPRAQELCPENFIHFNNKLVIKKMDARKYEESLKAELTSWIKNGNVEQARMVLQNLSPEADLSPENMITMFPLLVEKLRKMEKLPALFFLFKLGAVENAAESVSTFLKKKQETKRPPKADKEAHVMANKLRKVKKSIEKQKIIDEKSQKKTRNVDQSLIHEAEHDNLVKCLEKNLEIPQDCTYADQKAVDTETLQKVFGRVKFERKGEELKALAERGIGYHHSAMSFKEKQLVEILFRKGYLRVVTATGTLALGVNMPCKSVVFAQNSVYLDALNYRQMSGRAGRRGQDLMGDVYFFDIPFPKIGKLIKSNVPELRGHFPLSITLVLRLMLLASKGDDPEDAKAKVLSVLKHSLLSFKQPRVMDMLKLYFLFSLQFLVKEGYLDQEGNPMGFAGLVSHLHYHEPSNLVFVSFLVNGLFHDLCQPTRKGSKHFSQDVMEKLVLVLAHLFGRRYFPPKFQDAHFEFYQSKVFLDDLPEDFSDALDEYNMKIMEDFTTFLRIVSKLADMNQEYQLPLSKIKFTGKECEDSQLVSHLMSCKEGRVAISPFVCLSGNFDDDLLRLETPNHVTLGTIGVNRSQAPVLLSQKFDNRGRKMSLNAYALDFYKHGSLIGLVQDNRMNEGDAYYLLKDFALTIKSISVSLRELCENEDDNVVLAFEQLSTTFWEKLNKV
UniProt P19525: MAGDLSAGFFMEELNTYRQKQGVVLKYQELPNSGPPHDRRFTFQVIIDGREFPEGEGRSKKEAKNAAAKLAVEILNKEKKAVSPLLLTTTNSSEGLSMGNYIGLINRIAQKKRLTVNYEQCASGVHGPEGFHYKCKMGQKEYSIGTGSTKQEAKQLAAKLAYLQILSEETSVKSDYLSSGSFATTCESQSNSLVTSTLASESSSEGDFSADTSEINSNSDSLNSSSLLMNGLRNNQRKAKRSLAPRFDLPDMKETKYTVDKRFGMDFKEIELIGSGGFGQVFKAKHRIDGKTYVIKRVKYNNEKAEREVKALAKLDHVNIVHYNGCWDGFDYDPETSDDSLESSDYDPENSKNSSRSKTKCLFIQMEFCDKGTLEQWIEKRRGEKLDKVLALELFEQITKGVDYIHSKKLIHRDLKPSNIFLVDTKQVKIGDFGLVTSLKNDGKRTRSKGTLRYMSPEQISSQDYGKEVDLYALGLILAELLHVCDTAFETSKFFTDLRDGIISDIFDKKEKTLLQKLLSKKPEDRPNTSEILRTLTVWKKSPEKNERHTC

Molecular target: Flag-tagged SENP3 (human) (UniProt Q9H4L4)
Test: affinity purification with mass spectrometry

binding: binds
B1: HERC5 (enzyme, UniProt Q9UII4 1-1024)
chain: MERRSRRKSRRNGRSTAGKAAATQPAKSPGAQLWLFPSAAGLHRALLRRVEVTRQLCCSPGRLAVLERGGAGVQVHQLLAGSGGARTPKCIKLGKNMKIHSVDQGAEHMLILSSDGKPFEYDNYSMKHLRFESILQEKKIIQITCGDYHSLALSKGGELFAWGQNLHGQLGVGRKFPSTTTPQIVEHLAGVPLAQISAGEAHSMALSMSGNIYSWGKNECGQLGLGHTESKDDPSLIEGLDNQKVEFVACGGSHSALLTQDGLLFTFGAGKHGQLGHNSTQNELRPCLVAELVGYRVTQIACGRWHTLAYVSDLGKVFSFGSGKDGQLGNGGTRDQLMPLPVKVSSSEELKLESHTSEKELIMIAGGNQSILLWIKKENSYVNLKRTIPTLNEGTVKRWIADVETKRWQSTKREIQEIFSSPACLTGSFLRKRRTTEMMPVYLDLNKARNIFKELTQKDWITNMITTCLKDNLLKRLPFHSPPQEALEIFFLLPECPMMHISNNWESLVVPFAKVVCKMSDQSSLVLEEYWATLQESTFSKLVQMFKTAVICQLDYWDESAEENGNVQALLEMLKKLHRVNQVKCQLPESIFQVDELLHRLNFFVEVCRRYLWKMTVDASENVQCCVIFSHFPFIFNNLSKIKLLHTDTLLKIESKKHKAYLRSAAIEEERESEFALRPTFDLTVRRNHLIEDVLNQLSQFENEDLRKELWVSFSGEIGYDLGGVKKEFFYCLFAEMIQPEYGMFMYPEGASCMWFPVKPKFEKKRYFFFGVLCGLSLFNCNVANLPFPLALFKKLLDQMPSLEDLKELSPDLGKNLQTLLDDEGDNFEEVFYIHFNVHWDRNDTNLIPNGSSITVNQTNKRDYVSKYINYIFNDSVKAVYEEFRRGFYKMCDEDIIKLFHPEELKDVIVGNTDYDWKTFEKNARYEPGYNSSHPTIVMFWKAFHKLTLEEKKKFLVFLTGTDRLQMKDLNNMKITFCCPESWNERDPIRALTCFSVLFLPKYSTMETVEEALQEAINNNRGFG

binding: binds
B2: TAK1 (also known as MAP3K7) (enzyme, UniProt O43318 1-606)
chain: MSTASAASSSSSSSAGEMIEAPSQVLNFEEIDYKEIEVEEVVGRGAFGVVCKAKWRAKDVAIKQIESESERKAFIVELRQLSRVNHPNIVKLYGACLNPVCLVMEYAEGGSLYNVLHGAEPLPYYTAAHAMSWCLQCSQGVAYLHSMQPKALIHRDLKPPNLLLVAGGTVLKICDFGTACDIQTHMTNNKGSAAWMAPEVFEGSNYSEKCDVFSWGIILWEVITRRKPFDEIGGPAFRIMWAVHNGTRPPLIKNLPKPIESLMTRCWSKDPSQRPSMEEIVKIMTHLMRYFPGADEPLQYPCQYSDEGQSNSATSTGSFMDIASTNTSNKSDTNMEQVPATNDTIKRLESKLLKNQAKQQSESGRLSLGASRGSSVESLPPTSEGKRMSADMSEIEARIAATTAYSKPKRGHRKTASFGNILDVPEIVISGNGQPRRRSIQDLTVTGTEPGQVSSRSSSPSVRMITTSGPTSEKPTRSHPWTPDDSTDTNGSDNSIPMAYLTLDHQLQPLAPCPNSKESMAVFEQHCKMAQEYMKVQTEIALLLQRKQELVAELDQDEKDQQNTSRLVQEHKKLLDENKSLSTYYQQCKKQLEVIRSQQQKRQGTS

binding: binds
B3: IFIT5 (protein, UniProt Q13325 1-482)
chain: MSEIRKDTLKAILLELECHFTWNLLKEDIDLFEVEDTIGQQLEFLTTKSRLALYNLLAYVKHLKGQNKDALECLEQAEEIIQQEHSDKEEVRSLVTWGNYAWVYYHMDQLEEAQKYTGKIGNVCKKLSSPSNYKLECPETDCEKGWALLKFGGKYYQKAKAAFEKALEVEPDNPEFNIGYAITVYRLDDSDREGSVKSFSLGPLRKAVTLNPDNSYIKVFLALKLQDVHAEAEGEKYIEEILDQISSQPYVLRYAAKFYRRKNSWNKALELLKKALEVTPTSSFLHHQMGLCYRAQMIQIKKATHNRPKGKDKLKVDELISSAIFHFKAAMERDSMFAFAYTDLANMYAEGGQYSNAEDIFRKALRLENITDDHKHQIHYHYGRFQEFHRKSENTAIHHYLEALKVKDRSPLRTKLTSALKKLSTKRLCHNALDVQSLSALGFVYKLEGEKRQAAEYYEKAQKIDPENAEFLTALCELRLSI

Continued, molecule first:

Molecule: DDX60 (from UniProt Q8IY21 1-1712)
binding: binds

Molecule: EIF2AK2/PKR (from UniProt P19525 1-551) (enzyme)
binding: binds
